# Measurements reported in PubChem BioAssay AID1259296 (Sanger Institute, 2017).
# Aim: 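Kinase genes whose silencing works synergistically with colorectal cancer drugs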 (follow-up of hits)
# System: CAR1 human colorectal cancer cells
# Reagents: single siRNA against human genes
# Conditions: anchor drugs BYL719 at 1 µM, cetuximab at 5 µg/ml or trametinib at 10 nM, or DMSO vehicle, added a day after transfection
# Measured: 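Viability of cells versus control pool 2 (non-targeting) averaged across replicates; for every anchor drug, synergy score comparing joint effect with drug or siRNA alone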
# Scale: synergy with BYL719 and synergy with cetuximab and synergy with trametinib: higher = stronger synergy between knock-down and drug; viability, siRNA plus trametinib and viability, siRNA alone (DMSO): higher = more viable cells
# Call rule: 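Called active if the synergy score with at least one anchor drug is above 0.10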
# In all, the deposit lists 160 reagents; this is an unselected part. 45 of all reagents (28%) count as active. 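Calls are per single siRNA duplex in CAR1 cells only; how the synergy score is calculated is not stated.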 Reagents against one gene are numbered here. Viability is capped at 1. Not given: the amount of reagent, the time to read-out.
Gene,siRNA no.,synergy with BYL719,synergy with cetuximab,synergy with trametinib,"viability, siRNA plus trametinib (fraction of control)","viability, siRNA alone (DMSO) (fraction of control)",Call
MAPK4,1,0.185,0.0599,0.253,0.638,0.891,active
MAPK4,2,0.047,0.0055,-0.0311,0.862,0.831,inactive
MAPK4,3,0.0487,0.0375,0.042,0.897,0.939,inactive
MAPK4,4,-0.00621,-0.0514,-0.11,0.693,0.583,inactive
GRK5,1,0.00567,-0.0766,-0.0342,1,0.966,inactive
GRK5,2,-0.0627,-0.0439,0,1,1,inactive
GRK5,3,0.0481,-0.0101,0.234,0.61,0.844,active
GRK5,4,0.0485,0.0196,-0.000688,1,0.999,inactive
IRAK1,1,0.0446,0.0234,0.443,0.553,0.996,active
IRAK1,2,0.00387,-0.00239,0,1,1,inactive
IRAK1,3,0.11,0.0173,0.0219,0.923,0.945,active
IRAK1,4,0.337,-0.0497,0.152,0.715,0.867,active
AK2,1,-0.0114,-0.0439,0.0768,0.923,1,inactive
AK2,2,-0.0794,-0.14,-0.00713,0.897,0.889,inactive
AK2,3,-0.122,-0.0439,0,1,1,inactive
AK2,4,0.0202,0.061,0.158,0.774,0.932,active
CRIM1,1,-0.0332,-0.0715,-0.0201,0.991,0.971,inactive
CRIM1,2,-0.081,0.00531,0,1,1,inactive
CRIM1,3,0.0507,-0.0156,-0.146,0.949,0.803,inactive
CRIM1,4,0.0737,0.0622,0.0382,0.792,0.83,inactive
PIM1,1,0.0237,-0.0315,0.173,0.547,0.72,active
PIM1,2,-0.0181,0.0397,-0.0541,1,0.946,inactive
PIM1,3,-0.0486,0.035,0,1,1,inactive
PIM1,4,0.00933,-0.0357,0.0995,0.812,0.911,inactive
CHD4,1,-0.0526,-0.0707,0.0031,0.704,0.707,inactive
CHD4,2,0.0755,-0.024,-0.019,0.62,0.601,inactive
CHD4,3,-0.0936,-0.108,-0.0245,0.754,0.73,inactive
CHD4,4,-0.0326,-0.0457,0.00724,0.929,0.936,inactive
KCNH8,1,-0.0157,-0.065,-0.0444,0.952,0.908,inactive
KCNH8,2,0.0815,-0.074,0.146,0.602,0.748,active
KCNH8,3,-0.0712,-0.0686,-0.0605,0.936,0.876,inactive
KCNH8,4,-0.0986,-0.139,-0.108,0.841,0.733,inactive
HSPB8,1,0.0789,-0.115,0.0343,0.617,0.651,inactive
HSPB8,2,-0.0449,-0.0294,-0.00622,1,0.994,inactive
HSPB8,3,0.0322,0.0218,0.00954,0.912,0.922,inactive
HSPB8,4,-0.0583,0.0786,0.146,0.743,0.889,active
BMPR2,1,-0.0312,-0.0538,-0.0103,1,0.99,inactive
BMPR2,2,0.0829,-0.000355,-0.00758,0.943,0.936,inactive
BMPR2,3,-0.09,-0.0377,-0.0323,1,0.968,inactive
BMPR2,4,-0.113,0.0248,0,1,1,inactive
RPS6KA4,1,-0.0744,-0.0708,-0.0335,0.866,0.832,inactive
RPS6KA4,2,0.0452,0.0456,0.0133,0.886,0.899,inactive
RPS6KA4,3,0.0395,-0.0525,0.0334,0.766,0.799,inactive
RPS6KA4,4,0.0778,-0.0209,0.0665,0.707,0.774,inactive
IKBKB,1,-0.00419,0.0106,0.0561,0.775,0.831,inactive
IKBKB,2,-0.0733,-0.0463,0.0441,0.793,0.837,inactive
IKBKB,3,-0.0273,0.0818,-0.0405,0.998,0.957,inactive
IKBKB,4,0.0225,-0.0439,0,1,1,inactive
STK36,1,-0.182,-0.108,-0.0205,0.803,0.783,inactive
STK36,2,-0.115,-0.0395,-0.0215,0.906,0.884,inactive
STK36,3,0.00137,-0.0602,0.0632,0.844,0.907,inactive
STK36,4,-0.0332,-0.108,0.0178,0.775,0.793,inactive

Not a retest: 3 of the entries above.
Gene,siRNA no.,synergy with BYL719,synergy with cetuximab,synergy with trametinib,"viability, siRNA plus trametinib (fraction of control)","viability, siRNA alone (DMSO) (fraction of control)",Call
RPS6KA4,3,0.0395,-0.0525,0.0334,0.766,0.799,inactive
RPS6KA4,4,0.0778,-0.0209,0.0665,0.707,0.774,inactive
IKBKB,1,-0.00419,0.0106,0.0561,0.775,0.831,inactive
